Values from PubChem BioAssay AID1224826 (NIAID, 2016).

Purpose: 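Regulators of Tlr4 signalling leading to Tnf-alpha expression in macrophages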 (primary screen)
Cell system: RAW264.7 G9 macrophages from mouse bearing reporters for p65 (GFP) and the Tnf promoter (mCherry)
Reagents: siRNA pool against mouse genes, 100 nM
Time to read-out: 16 h of LPS stimulation, after 2 days of siRNA transfection
Conditions: bacterial lipopolysaccharide (Salmonella minnesota R595), 10 ng/ml
Measurement: 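Nuclear mCherry signal of the Tnf promoter reporter measured by imaging after background removal, scaled to each plate median and turned into robust z-scores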
Direction: Tnf reporter robust z-score: higher = stronger Tnf promoter reporter signal after LPS
Rule for the call: 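a well counts as active at a score of -1.3 or below (Tlr4 knock-down control median) or above 3 (raised signal); controls and wells holding fewer than 50 cells are excluded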
Calls: active = Tnf reporter clearly lowered or raised; inactive = no clear change in Tnf reporter
Here is an unselected part of about 17,000 deposited reagents. Over the whole deposit, about 1,110 (6.6%) are marked active. 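Active means lowered or raised reporter signal; replicate intensities are raw and not normalised per plate.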 Further read-outs or replicates are left out here. No sequences are given here.

The first 3 records as a preview:
1110006O24Rik — fewer than 50 cells in well = fewer than 50 cells per well; well left out of calls; outcome = inactive
Or5p51 — Tnf reporter robust z-score = 0.53; fewer than 50 cells in well = enough cells in well; outcome = inactive
Dhrs1 — Tnf reporter robust z-score = 1.59; fewer than 50 cells in well = enough cells in well; outcome = inactive

The listing, repeating the preview:
1110006O24Rik — fewer than 50 cells in well = fewer than 50 cells per well; well left out of calls; outcome = inactive
Or5p51 — Tnf reporter robust z-score = 0.53; fewer than 50 cells in well = enough cells in well; outcome = inactive
Dhrs1 — Tnf reporter robust z-score = 1.59; fewer than 50 cells in well = enough cells in well; outcome = inactive
Kcnj3 — Tnf reporter robust z-score = 0.34; fewer than 50 cells in well = enough cells in well; outcome = inactive
Bpifb3 — Tnf reporter robust z-score = -0.31; fewer than 50 cells in well = enough cells in well; outcome = inactive
Kif18b — Tnf reporter robust z-score = 0.79; fewer than 50 cells in well = enough cells in well; outcome = inactive
Hells — Tnf reporter robust z-score = 0.15; fewer than 50 cells in well = enough cells in well; outcome = inactive
Tut4 — Tnf reporter robust z-score = -0.27; fewer than 50 cells in well = enough cells in well; outcome = inactive
Hinfp — Tnf reporter robust z-score = 0.19; fewer than 50 cells in well = enough cells in well; outcome = inactive
Tmem229a — Tnf reporter robust z-score = 0.53; fewer than 50 cells in well = enough cells in well; outcome = inactive
Commd2 — Tnf reporter robust z-score = 1.22; fewer than 50 cells in well = enough cells in well; outcome = inactive
Pdpr — fewer than 50 cells in well = fewer than 50 cells per well; well left out of calls; outcome = inactive
Irs4 — Tnf reporter robust z-score = 0.75; fewer than 50 cells in well = enough cells in well; outcome = inactive
Cd9 — Tnf reporter robust z-score = -0.46; fewer than 50 cells in well = enough cells in well; outcome = inactive
Endog — Tnf reporter robust z-score = -0.92; fewer than 50 cells in well = enough cells in well; outcome = inactive
Plekha6 — Tnf reporter robust z-score = -0.93; fewer than 50 cells in well = enough cells in well; outcome = inactive
Tubb2b — Tnf reporter robust z-score = -0.19; fewer than 50 cells in well = enough cells in well; outcome = inactive
Tmem86a — Tnf reporter robust z-score = 3.2; fewer than 50 cells in well = enough cells in well; outcome = active
Abhd15 — fewer than 50 cells in well = fewer than 50 cells per well; well left out of calls; outcome = inactive
Liat1 — Tnf reporter robust z-score = 3.15; fewer than 50 cells in well = enough cells in well; outcome = active
Spaca7 — fewer than 50 cells in well = fewer than 50 cells per well; well left out of calls; outcome = inactive
Kbtbd12 — Tnf reporter robust z-score = 0.21; fewer than 50 cells in well = enough cells in well; outcome = inactive
Klk15 — Tnf reporter robust z-score = -0.96; fewer than 50 cells in well = enough cells in well; outcome = inactive
Myl7 — Tnf reporter robust z-score = 0.01; fewer than 50 cells in well = enough cells in well; outcome = inactive
Kcng3 — Tnf reporter robust z-score = 0.49; fewer than 50 cells in well = enough cells in well; outcome = inactive
Nr1h5 — Tnf reporter robust z-score = 0.67; fewer than 50 cells in well = enough cells in well; outcome = inactive
Asic1 — Tnf reporter robust z-score = 0.94; fewer than 50 cells in well = enough cells in well; outcome = inactive
